Reference: patent publication US20190119389A1
Substitutions are numbered along the chain they refer to. No constants are given. Whether binding was seen depends on the method and setting. Some entries that bind do so weakly or less than the wild type.

Protein sequences, listed by entry. Tags and fused reporters are not part of them. Lines headed by an entry give the natural chain unless they say otherwise; changes in a name come on top.
UniProt O14786: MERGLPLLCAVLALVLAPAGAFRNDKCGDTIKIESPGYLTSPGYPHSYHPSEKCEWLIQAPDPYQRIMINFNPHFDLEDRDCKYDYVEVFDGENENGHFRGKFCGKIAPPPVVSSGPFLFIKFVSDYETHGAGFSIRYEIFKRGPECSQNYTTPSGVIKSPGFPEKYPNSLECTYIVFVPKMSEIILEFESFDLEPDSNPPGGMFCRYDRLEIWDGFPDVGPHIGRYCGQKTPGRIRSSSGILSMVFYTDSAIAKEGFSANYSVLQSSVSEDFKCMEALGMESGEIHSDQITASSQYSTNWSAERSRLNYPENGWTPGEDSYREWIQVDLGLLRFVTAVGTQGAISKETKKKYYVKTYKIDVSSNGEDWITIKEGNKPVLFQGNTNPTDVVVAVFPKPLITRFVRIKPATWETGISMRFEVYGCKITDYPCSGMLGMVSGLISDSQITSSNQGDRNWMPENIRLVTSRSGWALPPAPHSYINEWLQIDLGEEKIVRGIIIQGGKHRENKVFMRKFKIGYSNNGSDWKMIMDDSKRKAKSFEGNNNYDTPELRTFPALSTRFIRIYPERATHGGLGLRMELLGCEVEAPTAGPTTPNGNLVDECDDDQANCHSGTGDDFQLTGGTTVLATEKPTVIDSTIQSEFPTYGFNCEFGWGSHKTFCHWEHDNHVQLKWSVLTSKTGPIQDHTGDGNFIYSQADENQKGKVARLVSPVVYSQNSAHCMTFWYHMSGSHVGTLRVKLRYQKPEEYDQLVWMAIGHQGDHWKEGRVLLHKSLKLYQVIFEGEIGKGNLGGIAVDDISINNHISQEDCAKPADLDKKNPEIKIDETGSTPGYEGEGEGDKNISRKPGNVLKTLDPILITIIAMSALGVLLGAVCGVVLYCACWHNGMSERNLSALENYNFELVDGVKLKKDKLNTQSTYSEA

B1: MAB1 (antibody, V domains shown)
VH: QVQLVQSGAGVKKPGASVKVSCKASGYTFRSYYMLWVRQAPGQGLEWMGIIDPSDGSTSYAQKFQGRVTMTRDTPTSTVYMELSSLRSEDTAVYYCARGARRITGYGMDVWGQGTTVTVSS
VL: DIQMTQSPSSVSASVGDRVTITCRASQGISSWLAWYQQKPGKAPKLLIYAASNLQSGVPSRFSGSGSGTDFTLTISSLQPEDFATYYCQQASVFPFTFGGGTKVEIK
B2: MAB2 (antibody, V domains shown)
VH: B1 VH with G10E, T74A, P75S, T118I
VL: B1 VL
B3: MAB3 (antibody, V domains shown)
VH: QAQLVQSGAEVKKPGASVKVSCKASGYTFSRYYMHWVRQAPGQGLEWMGIINPLGGSTLYAQKFQGRVTMTRDTSTSTVYMELSSLRSEDTAVYYCARDLGYYGSGMHAWGQGTLVTVSS
VL: B1 VL with S31R, N53S, S92N, V93L, F94L
B4: MAB4 (antibody, V domains shown)
VH: B3 VH with A2V, A109V
VL: B1 VL with S31R, N53S, S92N, V93L, F94L
B5: SEC3 (antibody, human IgG1, kappa, V domains shown)
VH: EVQLVESGGGLVQPGGSLRLSCAASGFTISGYGIHWVRQAPGKGLEWVAYIYPDSGYTDYADSVKGRFTISADTSKNTAYLQMNSLRAEDTAVYYCAREDFRNRRRLWYVMDYWGQGTLVTVSS
VL: DIQMTQSPSSLSASVGDRVTITCRASQDVSTAVAWYQQKPGKAPKLLIYSASFLYSGVPSRFSGSGSGTDFTLTISSLQPEDFATYYCQQAWAYLPTFGQGTKVEIKR

Assays:
[1] = biological target: Recombinant human NRP-1-Fc fusion protein, a1a2 domains (human) (UniProt O14786); experiment: BLI Octet QKe, antibody on AHC sensor, NRP-1-Fc fragment 500 nM
[2] = biological target: Recombinant human NRP-1-Fc fusion protein, a1 domain (human) (UniProt O14786); experiment: as above

| Binder | binding [1] | binding [2] |
| --- | --- | --- |
| B1 | binds | – |
| B2 | binds | – |
| B3 | binds | binds |
| B4 | binds | binds |
| B5 | binds | binds |
